Results from PubChem BioAssay AID2685 (National Center for Advancing Translational Sciences (NCATS), 2010).
The other results are listed elsewhere or left out. The main result of the screen is listed elsewhere. These columns were measured beside it and carry no call. Most of these compounds were active or inconclusive in the main read-out, so they are no random draw. Potencies come from curve fits of mixed quality, noted in brackets.

Test: qHTS Assay for Lipid Storage Modulators in Drosophila S3 Cells;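 on cell number change: cells counted by Cell Tracker Red CMTPX staining in the red channel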
Settings: BODIPY lipid droplet fluorescence, 18-24 h; for cell number change: measured here: cell count max response, cells fed with added oleic acid
Procedure, shortened: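 Drosophila S3 cells loaded with oleic acid (400 uM, as added) and compounds at several concentrations; lipid droplets imaged by 488-nm laser-scanning cytometry, 500–530 nm intensity and object ratio to cell channel. Percent activity normalized to 20 uM Triacsin C.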

[1] = measured here: lipid fluorescence (Fed channel) AC50, cells fed with added oleic acid
[2] = measured here: cell number channel AC50, cells fed with added oleic acid

Which results are given for `Cc1ccc2nc3c(cc(C(=O)NCCc4ccccc4)c(=N)n3CC3CCCO3)c(=O)n2c1` (stereo unspecified)?
cell number change: 11.7%; AC50 [1]: 6.51 µM [falling, single point]

For `CC1CCN(C(=O)CSCc2ccc(Cl)cc2)CC1`, which cell number change is on record?
The cell number change was 3.72%.

Which AC50 [2] does the source give for `COc1ccc(N2CCN(C(=O)COC(=O)CCOc3ccc(C(C)(C)C)cc3)CC2)cc1` here?
The AC50 was 1.46 µM [falling, full curve, poor fit].

Which cell number change does the source give for `O=C(COc1coc(CN2CCN(c3ccc(F)cc3)CC2)cc1=O)NCC1CCCO1` (stereo unspecified) here?
Its cell number change is 32.3%.

And the AC50 [2]?
Its AC50 is 16.4 µM [rising, single point].

With `Cc1ccc(C(=O)NNC(=O)CSc2nnc(-c3ccccc3)n2Cc2ccccc2)cc1` as the compound, how does the cell number change read?
The cell number change was 8.48%.

And the AC50 [1]?
The AC50 was 3.66 µM [rising, single point].

With `CCCn1nc(C(=O)N2CC(=O)Nc3ccccc32)c2ccccc2c1=O` as the compound, how does the cell number change read?
The cell number change was -14.6%.

With `COCCCN1C(=O)C(O)=C(C(=O)c2ccco2)C1c1ccc(Br)cc1` (stereo unspecified) as the compound, how does the cell number change read?
The cell number change was 15.7%.

And the AC50 [1]?
Its AC50 is 0.517 µM [falling, single point].

What does the source list for `COc1cccc(C(C(=O)NC(C)(C)C)N(Cc2ccc(C)cc2)C(=O)CCC(=O)Nc2cc(C)on2)c1OC` (stereo unspecified)?
cell number change: 12.1%; AC50 [1]: 0.82 µM [rising, full curve]

For `CCS(=O)(=O)c1ccc2oc(=O)c(/C=C(\O)c3ccc(Cl)cc3)nc2c1`, which AC50 [1] is on record?
The AC50 was 6.51 µM [falling, single point].

Which cell number change does the source give for `CN(C(=O)C1CCN(S(=O)(=O)c2cccs2)CC1)C1CCCCC1` here?
Its cell number change is 5.58%.

Which cell number change does the source give for `c1ccc(-n2ncc3c2ncn2nc(-c4ccco4)nc32)cc1` here?
The cell number change was 0.295%.

For `O=C(NCCCN1CCOCC1)c1cc2c(s1)CCC2`, which cell number change is on record?
The cell number change was 12.4%.

And the AC50 [1]?
Its AC50 is 0.103 µM [rising, full curve].

For `O=c1c2cc(NC(=S)NC3CCN(Cc4ccccc4)CC3)ccc2nc2n1CCCCC2`, which cell number change is on record?
The cell number change was 42.5%.

For `O=C(CCCOc1ccccc1)N1CCN(C(=O)c2ccco2)CC1`, which cell number change is on record?
The cell number change was -1.64%.

And the AC50 [1]?
Its AC50 is 16.4 µM [rising, partial curve].

Which results are given for `COc1ccc(OCC(=O)Nc2ccc(NC(=O)c3ccco3)c(C)c2)cc1`?
cell number change: 19%; AC50 [2]: 0.146 µM [rising, full curve, poor fit]; AC50 [1]: 16.4 µM [rising, single point]

What does the source list for `O=C(O)c1ccc(/C=N/Nc2nnnn2-c2ccccc2)cc1`?
cell number change: 24.4%; AC50 [2]: 0.231 µM [rising, full curve, poor fit]; AC50 [1]: 11.6 µM [rising, single point]

Which cell number change does the source give for `CC1CC(C)(C)NC(=O)O1` (stereo unspecified) here?
Its cell number change is -32.2%.

What about the AC50 [2] of the same compound?
Its AC50 is 16.4 µM [falling, single point].

And the AC50 [1]?
The AC50 was 0.92 µM [falling, full curve, poor fit].

With `CC1CCN(C(=S)Nc2cccc(S(=O)(=O)N(C)C)c2)CC1` as the compound, how does the AC50 [2] read?
Its AC50 is 0.731 µM [rising, single point].

And the AC50 [1]?
The AC50 was 13 µM [rising, partial curve].

What does the source list for `Cc1nc(N[C@@H](Cc2c[nH]c3ccccc23)C(=O)O)c2oc3ccccc3c2n1`?
cell number change: 2.36%; AC50 [2]: 0.0058 µM [rising, full curve, poor fit]; AC50 [1]: 1.84 µM [falling, partial curve]

Which results are given for `CCOC(=O)N1CCc2[nH]c3ccc(C)cc3c2C1`?
cell number change: -25.8%; AC50 [1]: 32.6 µM [falling, single point]

What does the source list for `CCc1ccccc1NC(=O)CSc1nc(-c2ccccc2)nn1C(=O)c1cccc([N+](=O)[O-])c1`?
cell number change: -31.4%; AC50 [2]: 1.16 µM [falling, partial curve]

Which cell number change does the source give for `FC(F)Oc1ccc(NC(=S)NC2CCSc3ccccc32)cc1` (stereo unspecified) here?
The cell number change was 33%.

And the AC50 [1]?
Its AC50 is 14.6 µM [rising, single point].

For `COc1ccc(-n2c(SCC(=O)Nc3cc(C)on3)nc3ccc(O)cc3c2=O)cc1OC`, which AC50 [1] is on record?
The AC50 was 0.651 µM [falling, single point].

For `CN(C)CCNC(=O)/C(=N\O)c1ccccn1`, which cell number change is on record?
The cell number change was -3.9%.

What about the AC50 [1] of the same compound?
The AC50 was 25.9 µM [falling, single point].

For `O=C(/C=N/O)NCc1cccnc1`, which cell number change is on record?
The cell number change was -14.6%.

Which results are given for `Fc1ccc(Nc2nc(N3CCOCC3)c3ccccc3n2)cc1`?
cell number change: -24%; AC50 [1]: 0.461 µM [rising, single point]

Which cell number change does the source give for `COc1cc2c(cc1OC)C1O[C@](c3ccsc3)(C2)OC2=C1C(=O)CC(C)(C)C2` here?
Its cell number change is 13.6%.

Which results are given for `O=C(/C=C/c1ccc2c(c1)OCO2)Nc1c(C(=O)O)[nH]c2ccccc12`?
cell number change: 2.09%; AC50 [1]: 32.6 µM [rising, single point]

Which cell number change does the source give for `CCc1cc2c(N3CCN(c4ccccc4)CC3)ncnc2s1` here?
The cell number change was 68.2%.

And the AC50 [2]?
Its AC50 is 11.6 µM [rising, partial curve].

And the AC50 [1]?
The AC50 was 1.84 µM [rising, partial curve].

For `Nc1cc(=O)[nH]c(SCC(=O)N2CCN(S(=O)(=O)c3ccc4ccccc4c3)CC2)n1`, which cell number change is on record?
Its cell number change is -9.29%.

And the AC50 [1]?
Its AC50 is 0.13 µM [falling, full curve, poor fit].

For `COCCN(CCOC)C(=S)Nc1ccccc1Cl`, which cell number change is on record?
Its cell number change is 2.69%.

Which cell number change does the source give for `CC(C)NC(=O)CCCC(=O)NC(C)C` here?
The cell number change was -32%.

And the AC50 [2]?
The AC50 was 5.8 µM [falling, full curve, poor fit].

And the AC50 [1]?
The AC50 was 6.51 µM [falling, single point].

For `C=CCNS(=O)(=O)c1ccc(C(=O)OCc2cc(=O)oc3cc(OC)ccc23)cc1`, which cell number change is on record?
The cell number change was 10.9%.

And the AC50 [1]?
The AC50 was 29.1 µM [falling, single point].

For `CCCN1C(=O)/C(=C/c2ccc(OCC(=O)OCC)cc2)NC1=S`, which cell number change is on record?
Its cell number change is -52.4%.

What about the AC50 [2] of the same compound?
The AC50 was 29.1 µM [falling, single point].

What about the AC50 [1] of the same compound?
Its AC50 is 29.1 µM [falling, partial curve, poor fit].

For `O=C(CCn1c(=O)[nH]c2ccsc2c1=O)N(CCc1ccccc1)Cc1ccccc1`, which AC50 [1] is on record?
Its AC50 is 6.51 µM [falling, single point].

For `O=C(O)c1ccc(N2Cc3ccccc3C2)cc1O`, which cell number change is on record?
Its cell number change is 57.4%.

What about the AC50 [2] of the same compound?
The AC50 was 18.4 µM [rising, partial curve, poor fit].

Which cell number change does the source give for `CC(C)(C)C(=O)N1CCN(c2ccc(NC(=O)c3ccco3)cc2)CC1` here?
Its cell number change is 3.85%.

And the AC50 [2]?
Its AC50 is 7.31 µM [rising, single point].

Which results are given for `CCCC1=C(C(=O)OCC)C(c2ccncc2)n2ncnc2N1` (stereo unspecified)?
cell number change: -57%; AC50 [2]: 29.1 µM [falling, single point]; AC50 [1]: 5.8 µM [rising, single point]

What does the source list for `Cc1ccccc1C(=O)Nc1ccc(S(=O)(=O)N2CCCC2)cc1`?
cell number change: -22.9%; AC50 [1]: 0.206 µM [falling, full curve, poor fit]

For `COc1ccccc1N1CCN(CC(=O)NCc2ccc(Cl)cc2)CC1`, which cell number change is on record?
The cell number change was -34.5%.

What about the AC50 [2] of the same compound?
Its AC50 is 32.6 µM [falling, partial curve, poor fit].

What does the source list for `COc1ccc2c(c1)c1c(n2C(C)=O)C(OC(C)=O)=NCC1`?
cell number change: -126%; AC50 [2]: 29.1 µM [falling, partial curve]

For `CC(C)c1ccc(NC(=O)c2snc3ccc(Cl)cc23)cc1`, which cell number change is on record?
The cell number change was -9.67%.

And the AC50 [1]?
Its AC50 is 29.1 µM [falling, single point].

What does the source list for `CCc1cccc(C)c1NC(=O)CC1Oc2ccc(C)cc2NC1=O` (stereo unspecified)?
cell number change: 4.56%; AC50 [1]: 2.91 µM [rising, single point]

Which cell number change does the source give for `C/C(=N/OC(=O)c1ccc(C)cc1)c1cccs1` here?
Its cell number change is 151%.

And the AC50 [2]?
The AC50 was 29.1 µM [rising, partial curve].

What about the AC50 [1] of the same compound?
The AC50 was 29.1 µM [rising, single point].

Which AC50 [1] does the source give for `CCCN(c1ccccc1F)S(=O)(=O)c1c[nH]c(C(=O)OC)c1` here?
The AC50 was 4.11 µM [falling, single point].

For `O=C1CCCC2=C1C(c1cccs1)n1nc(SCc3ccccc3)nc1N2` (stereo unspecified), which cell number change is on record?
Its cell number change is 82.8%.

And the AC50 [1]?
Its AC50 is 2.91 µM [rising, partial curve].

Which AC50 [1] does the source give for `CCNC(=O)CN(CCc1ccccc1)S(=O)(=O)c1ccc(OC)cc1` here?
The AC50 was 6.51 µM [falling, partial curve].

What does the source list for `COc1ccc(C2NC(=O)C(C)S2)cc1` (stereo unspecified)?
cell number change: -7.05%; AC50 [2]: 0.00461 µM [falling, full curve, poor fit]; AC50 [1]: 0.82 µM [falling, partial curve]

Which cell number change does the source give for `O=C(Nc1ccc(F)cc1)NC1CCCCCCC1` here?
Its cell number change is 2.48%.

And the AC50 [2]?
Its AC50 is 6.51 µM [rising, single point].

What does the source list for `CC(C)OC(=O)c1cccc(-c2ccc(C=O)o2)c1`?
cell number change: -20.3%; AC50 [1]: 2.06 µM [falling, partial curve, poor fit]

Which cell number change does the source give for `CC1CCCN(C(=O)COC(=O)Cc2c[nH]c3ccccc23)C1` (stereo unspecified) here?
Its cell number change is -17.1%.

With `CN(C)c1ccc(/C=N\NC(=S)SCN2C(=O)C3CCC(C)(C2=O)C3(C)C)cc1` (stereo unspecified) as the compound, how does the cell number change read?
The cell number change was -12.1%.

What about the AC50 [1] of the same compound?
Its AC50 is 16.4 µM [falling, partial curve, poor fit].

Which cell number change does the source give for `CCCCCCOc1ccc(C(=O)NCCCn2ccnc2)cc1` here?
Its cell number change is 11.3%.

What does the source list for `Cc1cc(C(=O)Nc2ccccc2C)on1`?
cell number change: 13.2%; AC50 [1]: 35.5 µM [falling, single point]

For `CCOC(=O)C1CCCN(c2nnnn2-c2ccccc2)C1` (stereo unspecified), which cell number change is on record?
The cell number change was 0.14%.

Which results are given for `COc1ccc(/C=C(\C#N)C(=O)OCC(=O)NC(=O)NCCC(C)C)cc1`?
cell number change: 0.415%; AC50 [2]: 0.092 µM [falling, full curve]; AC50 [1]: 0.103 µM [falling, full curve, poor fit]

With `CCN(CC)C(=O)Cn1cc(C(=O)C(=O)N2CCN(Cc3ccc4c(c3)OCO4)CC2)c2ccccc21` as the compound, how does the cell number change read?
The cell number change was 26.7%.

What about the AC50 [1] of the same compound?
The AC50 was 3.26 µM [rising, partial curve, poor fit].

Which cell number change does the source give for `CCOC(=O)c1c(N)sc2c(O)c(Br)ccc12` here?
The cell number change was 0.722%.

What about the AC50 [2] of the same compound?
Its AC50 is 0.082 µM [rising, full curve, poor fit].

What about the AC50 [1] of the same compound?
Its AC50 is 0.103 µM [rising, full curve, poor fit].

Which cell number change does the source give for `CC(=O)NC(Cc1ccc(F)cc1)C(=O)NC1CCN(S(=O)(=O)c2ccccc2)CC1` (stereo unspecified) here?
Its cell number change is 11.5%.

And the AC50 [1]?
The AC50 was 0.116 µM [falling, single point].

What does the source list for `COc1ccc(NC(=O)CN(C)C(=O)CSc2ccc3c(c2)OCCO3)cc1`?
cell number change: 39.9%; AC50 [2]: 29.1 µM [rising, single point]; AC50 [1]: 29.1 µM [rising, single point]
